These are literature values, as cited in PMC6581027, “In vitro Radiopharmaceutical Evidence for MCHR1 Binding Sites in Murine Brown Adipocytes” (Frontiers in Endocrinology, 2019).

In this data set the target is ADRB3. Also noted: method as in PMID 14730417, PMID 8719421, PMID 7903415, PMID 2570461. The note with it: literature values for standard compounds; ref [43], [45]–[47]; read-out: Ki ADRB3 reference; cited from earlier work.

Several values for one entry are separate records, joined by “and”; a condition that tells them apart may be missing. Identical values can stand only once.

What is called Ki is a measure of affinity in units of concentration, obtained from inhibition or displacement. As to `CC(C)NC[C@H](O)COc1cccc2ccccc12.Cl` [(S)-propranolol, (S)-propranolol hydrochloride], the Ki is 186 nM and 145 nM.
